# PubChem BioAssay AID493014 (National Center for Advancing Translational Sciences (NCATS), 2011)
# The whole screen tested about 340,000 compounds, of which about 170 (0.05%) were called active. The inconclusive results got no clear call from the source; some entries with a clear call stand among them for comparison. Calls come from the whole dose curve; as a rule, active = well fitted inhibition curve with a large enough effect in the signal ratio, with a control signal flat (not every such curve was filed as active); inconclusive = small, poorly fitted or top-dose-only effect, or effect the other way, or a change in a side signal; inactive = flat fitted curve, though single readings scatter; the % refers to the signal ratio. Potencies of inconclusive entries are doubtful fits and often do not repeat.
# Test: qHTS Assay to Find Inhibitors of Chronic Active B-Cell Receptor Signaling;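 for activity change, negative = inhibition: plate controls were basal doxycycline-induced cells for no effect and cells given 10 µM MG132 for full effect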
# Settings: ABC-DLBCL IkBa-CBG/CBR reporter, luminescence ratio (green luciferase fused to IkBa over red control in TMD8 lymphoma cells), 4 h; activity change, negative = inhibition: at 46.1 µM (top of the series)
# How it was run: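 Cell line TMD8 (human ABC DLBCL), stably expressing tet-inducible CBG68-IkBa fusion and CBR; IMDM/0.5% FBS; cpd up to 46 uM; dox induction, 4 h, 37C/5% CO2; dual luminescence; green/red ratio; MG132 control.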
# Potency is the fitted concentration of half-maximal effect.
Structure (SMILES),Potency,"activity change, negative = inhibition"
Cc1ccc(/C=C2/SC(=S)N(CCCC(=O)Nc3cc([N+](=O)[O-])ccc3O)C2=O)cc1,"inconclusive: 5.62 µM [rising, partial curve]",
CC(C)(C)C(O)C(Cc1ccccc1Cl)n1cncn1 (centres undefined),,inactive
CCOC(=O)c1cc(C)nc(Sc2ccc(C)cc2)c1C#N,"inconclusive: 10 µM [falling, partial curve]",
O=C(COc1ccccc1F)NNC(=O)c1cc(Br)ccc1Cl,,inconclusive: 4.98%
CN1CCCC(C#CC(O)(c2ccccc2)c2ccccc2)C1 (centres undefined),,inconclusive: 6.34%
O=C(NCC1CCCO1)C1CC(=O)N(c2cccc(Cl)c2)C1 (centres undefined),,inconclusive: 3.12%
COc1ccc(NC(=O)CC2C(=O)N(c3ccc(Cl)cc3)C(=S)N2CCc2ccncc2)cc1 (centres undefined),,inconclusive: 1.89%
Cc1[nH]c2ccccc2c1/C=C/c1nc2ccccc2c(=O)n1CCO,"inconclusive: 11.2 µM [falling, partial curve]",
Cc1[nH]c2ccccc2c(=O)c1C(=O)/C=C/c1ccccc1,"inconclusive: 3.98 µM [falling, full curve]",
C=CCc1cccc(/C=N/c2ncn[nH]2)c1O,,inconclusive: 6.15%
COc1ccc2oc(C(=O)OCC(=O)N3CCCC(C)C3)c(C)c2c1 (centres undefined),,inconclusive: 9.87%
Cc1cccc(C2C=C(c3ccc(F)cc3)Nc3nc4ccccc4n32)c1 (centres undefined),"inconclusive: 35.5 µM [rising, single point]",
O=C(NCC1CCCO1)C(c1ccc(F)cc1)N(CCCN1CCOCC1)C(=O)c1ccc(-c2ccccc2)[nH]1 (centres undefined),"inconclusive: 25.1 µM [activator, partial curve, poor fit]",
COc1ccccc1-n1c(SCC(=O)Nc2ccc(C)cc2)nc(O)cc1=O,"inconclusive: 8.2 µM [rising, partial curve, poor fit]",
CCn1c(=O)c2ccccc2n2c(SCC(N)=O)nnc12,,inactive
CC(=O)OCCNc1cc(Sc2nc3ccccc3[nH]2)c2nonc2c1[N+](=O)[O-],,inconclusive: -14.8%
CN(c1ccccc1)S(=O)(=O)c1cccc(C(=O)OCC(=O)Nc2ccc(C(N)=O)cc2)c1,"inconclusive: 32.6 µM [falling, partial curve, poor fit]",
CCCC(C)C(=O)Nc1cc([N+](=O)[O-])ccc1Cl (centres undefined),,inconclusive: -0.192%
Nc1c(C(O)(C(F)(F)F)C(F)(F)F)cc(C(O)(C(F)(F)F)C(F)(F)F)c2ccccc12,,inconclusive: -15.1%
Cc1sc(N)nc1C12CC3CC(CC(C3)C1)C2,"inconclusive: 0.891 µM [rising, full curve]",
CC(C)[C@H](NC(=O)OC(C)(C)C)c1nnc(S(=O)(=O)Cc2c(F)cccc2Cl)o1,"inconclusive: 3.66 µM [falling, partial curve]",
O=C(NCCc1ccccc1)c1ccc(NC(=O)c2cccnc2)cc1,,inconclusive: 6.77%
CC(C)c1ccc(NC(=O)c2ccc(Br)o2)cc1,"inconclusive: 29.1 µM [falling, single point]",
Nc1nnc(SCC(=O)c2ccccc2)s1,"inconclusive: 15.8 µM [falling, single point]",
O=C(c1ccc(-c2cc3ccccc3oc2=O)cc1)N1CCN(c2ccc(Cl)cc2[N+](=O)[O-])CC1,"inconclusive: 29.1 µM [falling, single point]",
O=C(Nc1ccc(S(=O)(=O)Nc2cnc3ccccc3n2)cc1)c1ccc(Cl)c([N+](=O)[O-])c1,,inactive
CCC(=O)c1ccc(OCC(O)CN2CCc3ccccc3C2)cc1 (centres undefined),,inactive

# Whole records from above:
# O=C(Nc1ccc(S(=O)(=O)Nc2cnc3ccccc3n2)cc1)c1ccc(Cl)c([N+](=O)[O-])c1 in the list: activity change, negative = inhibition: inactive
# CCCC(C)C(=O)Nc1cc([N+](=O)[O-])ccc1Cl (centres undefined) in the list: activity change, negative = inhibition: inconclusive: -0.192%
# Cc1cccc(C2C=C(c3ccc(F)cc3)Nc3nc4ccccc4n32)c1 (centres undefined) in the list: Potency: inconclusive: 35.5 µM [rising, single point]
# O=C(COc1ccccc1F)NNC(=O)c1cc(Br)ccc1Cl in the list: activity change, negative = inhibition: inconclusive: 4.98%

# Further records:

Structure (SMILES),Potency,"activity change, negative = inhibition"
Oc1ccccc1N=Cc1ccc[nH]1,"inconclusive: 6.51 µM [falling, full curve]",
CCc1nn(CC(=O)NCCCN2CCOCC2)c(=O)c2cc3sccc3n12,,inconclusive: 5.19%
O=C1N=C(N2CCCC2)CN1c1ccccc1,,inactive
Cc1ccc(N2C(=O)c3ccccc3C2Nc2ccccc2F)nc1 (centres undefined),,inactive
CCOc1ccccc1/C=N/Nc1ccccc1[N+](=O)[O-],,inactive
COc1ccc(C2C=C(c3ccc(C)c(C)c3)Nc3ncnn32)c(OC)c1OC (centres undefined),,inconclusive: -14.8%
Cc1cc(C)n2c(Br)c(CSc3nc4ccccc4s3)nc2n1,,inconclusive: 12.4%
CCN(CC)c1nc2ccccc2n2cnnc12,,inconclusive: -0.659%
COc1ccc(-c2noc(CN(C)Cc3ccccc3)n2)c(OC)c1OC,,inconclusive: 1.99%
CCc1ccc(NC(=O)CSc2nc3ccsc3c(=O)n2C(C)CC)cc1 (centres undefined),,inactive
O=S(=O)(N1CCCCC1)N1CCN(c2cc(Cl)ccc2Cl)CC1,,inactive
COc1ccc(CNC(=O)COc2ccc(Br)c(C)c2)cc1,,inconclusive: -28.8%
C=CCOc1c(CNc2ccc(C(=O)O)cc2)cccc1OCC,"inconclusive: 10 µM [falling, single point]",
O=[N+]([O-])c1ccc(C=Nc2cccc3ccccc23)s1,,inconclusive: -5.78%
COc1ccc(-c2noc(CCCC(=O)NCC3CCCO3)n2)cc1 (centres undefined),,inactive
COc1ccccc1C(OC(=O)c1cccs1)C(=O)NCc1ccco1 (centres undefined),,inconclusive: -13.8%
CC(C)c1nnc(NC(=O)c2nc(S(=O)(=O)Cc3ccccc3F)ncc2Cl)s1,,inconclusive: -0.97%
CNC(=O)C(=O)N/N=C/c1ccc(Br)cc1,,inconclusive: 4.52%
O=C(c1ccc(Br)o1)N1CCN=C1SCc1cccc(F)c1,"inconclusive: 32.6 µM [rising, single point]",
COc1cc(C(=O)OCC(=O)NC(=O)NC2CCCCC2)cc(Cl)c1OC,"inconclusive: 20.6 µM [falling, partial curve, poor fit]",
CCOC(=O)C1CCCN(C(=O)c2cc(CN3C(=O)c4ccccc4C3=O)ccc2OC)C1 (centres undefined),,inconclusive: -0.699%
CC(=O)c1sc(NC(=O)COc2ccccc2)nc1C,"inconclusive: 7.94 µM [falling, partial curve]",
CCOc1cc(/C=N/NC(=O)c2ccc(-c3csc(Nc4ccc(C)cc4)n3)cc2)ccc1OCC(=O)O,"inconclusive: 3.16 µM [falling, full curve]",
Fc1cccc(NC(=S)N2CCN(c3ccccn3)CC2)c1,,inconclusive: 7.41%
CCOC(=O)C1=NN(C(=O)c2ccc(C)cc2)C(O)(c2ccc(Cl)cc2)C1 (centres undefined),,inactive
O=[N+]([O-])c1ccccc1/C=C/C=N/n1c(-c2ccco2)n[nH]c1=S,,inconclusive: -1.7%
COc1ccc(NC(=O)c2ccccc2)cc1NS(=O)(=O)c1ccc(F)cc1,,inconclusive: 2.95%

Structure (SMILES),Potency,"activity change, negative = inhibition"
O=C(Nc1cccc(C(F)(F)F)c1)c1cccnc1NCCO,,inconclusive: 0.834%
CCOC(=O)N1CCN(C(=O)C2CCN(S(=O)(=O)c3ccccc3)CC2)CC1,,inconclusive: 14.1%
COc1cc(C(=O)OC(C)C(=O)N2CCCC2)cc2c1OCCO2 (centres undefined),,inconclusive: 4.53%
COc1cc(CNC2CCCCCCC2)cc(Cl)c1OC,,inactive
COc1ccc(-c2noc(N3CCC(C(=O)Nc4ccccc4Cl)CC3)n2)cc1,,inactive
Cn1nc(C(=O)Nc2ccc3c(c2)OCO3)c2ccccc2c1=O,,inactive
Cc1n[nH]c(=S)n1/N=C/c1ccc(OCc2ccc(Cl)cc2Cl)cc1,"inconclusive: 18.4 µM [falling, single point]",
CC(CSc1nnnn1-c1ccccc1)Cn1c(N2CCCC2)nc2c1c(=O)[nH]c(=O)n2C (centres undefined),,inconclusive: -17.7%
O=c1cc(-c2ccccc2)[nH]c2nc3ccccc3n12,"inconclusive: 4.61 µM [falling, partial curve]",
FC(F)(F)c1cc(CCN2CCNC[C@@H]2CC2CCCCC2)cc(C(F)(F)F)c1,,inactive
COc1ccc(CCNCC(O)COc2ccc(OC)cc2C(C)(C)C)cc1 (centres undefined),,inconclusive: -22.6%
O=C(NNC(=O)c1ccccc1[N+](=O)[O-])c1ccccc1[N+](=O)[O-],,inconclusive: -17.7%
COc1ccccc1NC(=O)CSc1nc(O)c(Cc2ccccc2)c(=O)[nH]1,,inconclusive: 8.61%
O=C(COC(=O)c1ccccc1NC(=O)c1ccco1)NC1CC1,,inconclusive: -15.6%
c1ccc2nc(-c3ccc(N4CCOCC4)cc3)ccc2c1,,inconclusive: 20.4%
Cn1c(-n2c(-c3ccco3)nc3ccccc3c2=O)nc2ccccc21,,inactive
CCC(=O)n1nc(-c2ccccc2)nc1SCC(=O)Nc1ccc(C)cc1,"inconclusive: 12.6 µM [falling, partial curve]",
COc1ccccc1NC(=O)CN(Cc1ccco1)C(=O)c1cccs1,"inconclusive: 29.1 µM [falling, single point]",
CCOc1cc(NC(=O)C2CC2)c(OCC)cc1NC(=O)c1ccccn1,,inconclusive: 7.5%
C#CCOCCOCCOCCNc1nc(N2CCN(C(=O)C([C@@H](C)CC)n3cc(C(N)CO)nn3)CC2)nc(N2CCN(C(=O)[C@H](CCC(=O)O)n3cc(C(N)[C@H](C)CC)nn3)CC2)n1 (some centres undefined),,inconclusive: -0.492%
O=C(NCc1ccncc1)c1ccc(N2CCCC2)c([N+](=O)[O-])c1,"inconclusive: 35.5 µM [falling, single point]",
COc1cc2c(cc1OC)N1C(=O)CC(OCC(=O)O)C3C4CC5(CCN5C(=O)C4=O)C2C31 (centres undefined),,inconclusive: 16.3%
Cn1c(CC(=O)NCCO)c(Sc2ccccc2)c2ccccc21,,inactive
CCN(CC(=O)Nc1cc(Cl)ccc1C)C(=O)C1CC1,,inconclusive: -2.45%
COc1ccc(CN(C(=O)Cc2c[nH]c3ccccc23)C(C(=O)NC2CCCCC2)c2ccc(C)o2)cc1 (centres undefined),"inconclusive: 18.4 µM [falling, partial curve, poor fit]",
